The list shows a part of the results.
Experiments:
Test in all cases: log2 fold change, soluble protein after heating vs DMSO (PISA); higher = thermal stabilisation; K562 lysate, 10 uM; active = over 0.2 and 3.5 SD of the protein, either way, in both replicates (recomputed)
[1] = compound: Cc1cn(-c2cc(NC(=O)c3ccc(C)c(Nc4nccc(-c5cccnc5)n4)c3)cc(C(F)(F)F)c2)cn1 [nilotinib]
Procedure, shortened: (§1)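 Pellets of K562 cells were dounce-homogenised in PBS pH 7.4 with 1 mM MgCl2, and the crude extract was held at 1 mg/mL protein for a 30 min treatment with 10 μM compound. Aliquots were heated for 3 min over 48°C-58°C and pooled before NP-40 was added to 0.5% at 4°C. The supernatant from 21,000xg for 90 min was quantified by TMTpro 16plex LC-MS/MS with channel sums equalised. Values are reported from duplicates as log-two fold change in thermal stability relative to solvent controls.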

By UniProt entry, the sequences of proteins in these tests, tags left out. Where a name states a change or a piece, a line headed by the entry shows the natural chain unless it says otherwise.
UniProt Q9Y2Q5, whole entry, looked up: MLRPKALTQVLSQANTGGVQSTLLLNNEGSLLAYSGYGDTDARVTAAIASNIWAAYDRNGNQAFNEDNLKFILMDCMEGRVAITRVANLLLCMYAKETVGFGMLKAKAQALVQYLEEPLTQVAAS
UniProt P83111: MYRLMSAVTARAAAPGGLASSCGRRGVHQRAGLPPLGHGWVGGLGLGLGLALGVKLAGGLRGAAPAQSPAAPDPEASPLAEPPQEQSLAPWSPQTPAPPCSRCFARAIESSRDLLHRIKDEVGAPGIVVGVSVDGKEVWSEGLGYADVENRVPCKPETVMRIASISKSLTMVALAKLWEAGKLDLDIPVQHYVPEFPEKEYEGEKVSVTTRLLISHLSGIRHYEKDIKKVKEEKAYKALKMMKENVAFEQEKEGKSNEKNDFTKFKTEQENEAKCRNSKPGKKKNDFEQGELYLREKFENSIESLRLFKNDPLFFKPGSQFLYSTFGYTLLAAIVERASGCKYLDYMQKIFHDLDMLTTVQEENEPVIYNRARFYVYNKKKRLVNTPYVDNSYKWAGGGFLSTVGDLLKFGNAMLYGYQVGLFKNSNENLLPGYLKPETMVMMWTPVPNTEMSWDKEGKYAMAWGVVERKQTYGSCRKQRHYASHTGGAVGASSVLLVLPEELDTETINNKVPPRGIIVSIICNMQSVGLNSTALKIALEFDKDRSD
UniProt O94953: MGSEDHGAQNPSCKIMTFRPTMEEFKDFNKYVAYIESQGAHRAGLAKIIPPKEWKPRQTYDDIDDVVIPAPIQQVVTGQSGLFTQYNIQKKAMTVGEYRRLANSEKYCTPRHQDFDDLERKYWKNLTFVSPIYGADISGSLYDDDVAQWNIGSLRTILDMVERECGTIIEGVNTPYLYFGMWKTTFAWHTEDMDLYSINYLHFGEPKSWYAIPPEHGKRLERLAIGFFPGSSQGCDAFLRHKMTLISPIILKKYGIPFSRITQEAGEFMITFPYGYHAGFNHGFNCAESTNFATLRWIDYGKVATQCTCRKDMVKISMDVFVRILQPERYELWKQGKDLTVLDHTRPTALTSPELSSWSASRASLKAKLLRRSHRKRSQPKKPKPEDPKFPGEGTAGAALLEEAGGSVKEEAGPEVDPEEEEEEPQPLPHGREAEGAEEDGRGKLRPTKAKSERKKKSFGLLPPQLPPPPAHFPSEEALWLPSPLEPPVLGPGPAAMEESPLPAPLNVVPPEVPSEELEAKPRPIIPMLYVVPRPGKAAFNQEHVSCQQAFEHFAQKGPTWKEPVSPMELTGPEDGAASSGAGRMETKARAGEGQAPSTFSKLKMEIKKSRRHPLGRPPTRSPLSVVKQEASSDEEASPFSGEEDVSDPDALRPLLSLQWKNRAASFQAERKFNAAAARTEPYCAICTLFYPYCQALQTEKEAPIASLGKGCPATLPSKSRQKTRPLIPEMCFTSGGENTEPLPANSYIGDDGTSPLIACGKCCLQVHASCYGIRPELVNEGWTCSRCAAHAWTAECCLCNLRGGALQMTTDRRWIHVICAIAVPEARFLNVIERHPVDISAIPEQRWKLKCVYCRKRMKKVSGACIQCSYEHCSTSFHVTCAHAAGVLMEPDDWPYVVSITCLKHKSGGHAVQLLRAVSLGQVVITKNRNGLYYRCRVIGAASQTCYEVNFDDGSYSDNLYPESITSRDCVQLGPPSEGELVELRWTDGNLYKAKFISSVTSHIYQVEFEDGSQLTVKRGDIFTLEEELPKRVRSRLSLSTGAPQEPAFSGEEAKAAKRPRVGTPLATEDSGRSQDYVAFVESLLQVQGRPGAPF
UniProt Q9GZZ8: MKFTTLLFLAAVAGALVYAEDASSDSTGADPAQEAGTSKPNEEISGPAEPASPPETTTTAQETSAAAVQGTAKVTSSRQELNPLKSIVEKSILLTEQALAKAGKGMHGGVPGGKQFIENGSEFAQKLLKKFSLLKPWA
UniProt Q9UMN6, whole entry, looked up: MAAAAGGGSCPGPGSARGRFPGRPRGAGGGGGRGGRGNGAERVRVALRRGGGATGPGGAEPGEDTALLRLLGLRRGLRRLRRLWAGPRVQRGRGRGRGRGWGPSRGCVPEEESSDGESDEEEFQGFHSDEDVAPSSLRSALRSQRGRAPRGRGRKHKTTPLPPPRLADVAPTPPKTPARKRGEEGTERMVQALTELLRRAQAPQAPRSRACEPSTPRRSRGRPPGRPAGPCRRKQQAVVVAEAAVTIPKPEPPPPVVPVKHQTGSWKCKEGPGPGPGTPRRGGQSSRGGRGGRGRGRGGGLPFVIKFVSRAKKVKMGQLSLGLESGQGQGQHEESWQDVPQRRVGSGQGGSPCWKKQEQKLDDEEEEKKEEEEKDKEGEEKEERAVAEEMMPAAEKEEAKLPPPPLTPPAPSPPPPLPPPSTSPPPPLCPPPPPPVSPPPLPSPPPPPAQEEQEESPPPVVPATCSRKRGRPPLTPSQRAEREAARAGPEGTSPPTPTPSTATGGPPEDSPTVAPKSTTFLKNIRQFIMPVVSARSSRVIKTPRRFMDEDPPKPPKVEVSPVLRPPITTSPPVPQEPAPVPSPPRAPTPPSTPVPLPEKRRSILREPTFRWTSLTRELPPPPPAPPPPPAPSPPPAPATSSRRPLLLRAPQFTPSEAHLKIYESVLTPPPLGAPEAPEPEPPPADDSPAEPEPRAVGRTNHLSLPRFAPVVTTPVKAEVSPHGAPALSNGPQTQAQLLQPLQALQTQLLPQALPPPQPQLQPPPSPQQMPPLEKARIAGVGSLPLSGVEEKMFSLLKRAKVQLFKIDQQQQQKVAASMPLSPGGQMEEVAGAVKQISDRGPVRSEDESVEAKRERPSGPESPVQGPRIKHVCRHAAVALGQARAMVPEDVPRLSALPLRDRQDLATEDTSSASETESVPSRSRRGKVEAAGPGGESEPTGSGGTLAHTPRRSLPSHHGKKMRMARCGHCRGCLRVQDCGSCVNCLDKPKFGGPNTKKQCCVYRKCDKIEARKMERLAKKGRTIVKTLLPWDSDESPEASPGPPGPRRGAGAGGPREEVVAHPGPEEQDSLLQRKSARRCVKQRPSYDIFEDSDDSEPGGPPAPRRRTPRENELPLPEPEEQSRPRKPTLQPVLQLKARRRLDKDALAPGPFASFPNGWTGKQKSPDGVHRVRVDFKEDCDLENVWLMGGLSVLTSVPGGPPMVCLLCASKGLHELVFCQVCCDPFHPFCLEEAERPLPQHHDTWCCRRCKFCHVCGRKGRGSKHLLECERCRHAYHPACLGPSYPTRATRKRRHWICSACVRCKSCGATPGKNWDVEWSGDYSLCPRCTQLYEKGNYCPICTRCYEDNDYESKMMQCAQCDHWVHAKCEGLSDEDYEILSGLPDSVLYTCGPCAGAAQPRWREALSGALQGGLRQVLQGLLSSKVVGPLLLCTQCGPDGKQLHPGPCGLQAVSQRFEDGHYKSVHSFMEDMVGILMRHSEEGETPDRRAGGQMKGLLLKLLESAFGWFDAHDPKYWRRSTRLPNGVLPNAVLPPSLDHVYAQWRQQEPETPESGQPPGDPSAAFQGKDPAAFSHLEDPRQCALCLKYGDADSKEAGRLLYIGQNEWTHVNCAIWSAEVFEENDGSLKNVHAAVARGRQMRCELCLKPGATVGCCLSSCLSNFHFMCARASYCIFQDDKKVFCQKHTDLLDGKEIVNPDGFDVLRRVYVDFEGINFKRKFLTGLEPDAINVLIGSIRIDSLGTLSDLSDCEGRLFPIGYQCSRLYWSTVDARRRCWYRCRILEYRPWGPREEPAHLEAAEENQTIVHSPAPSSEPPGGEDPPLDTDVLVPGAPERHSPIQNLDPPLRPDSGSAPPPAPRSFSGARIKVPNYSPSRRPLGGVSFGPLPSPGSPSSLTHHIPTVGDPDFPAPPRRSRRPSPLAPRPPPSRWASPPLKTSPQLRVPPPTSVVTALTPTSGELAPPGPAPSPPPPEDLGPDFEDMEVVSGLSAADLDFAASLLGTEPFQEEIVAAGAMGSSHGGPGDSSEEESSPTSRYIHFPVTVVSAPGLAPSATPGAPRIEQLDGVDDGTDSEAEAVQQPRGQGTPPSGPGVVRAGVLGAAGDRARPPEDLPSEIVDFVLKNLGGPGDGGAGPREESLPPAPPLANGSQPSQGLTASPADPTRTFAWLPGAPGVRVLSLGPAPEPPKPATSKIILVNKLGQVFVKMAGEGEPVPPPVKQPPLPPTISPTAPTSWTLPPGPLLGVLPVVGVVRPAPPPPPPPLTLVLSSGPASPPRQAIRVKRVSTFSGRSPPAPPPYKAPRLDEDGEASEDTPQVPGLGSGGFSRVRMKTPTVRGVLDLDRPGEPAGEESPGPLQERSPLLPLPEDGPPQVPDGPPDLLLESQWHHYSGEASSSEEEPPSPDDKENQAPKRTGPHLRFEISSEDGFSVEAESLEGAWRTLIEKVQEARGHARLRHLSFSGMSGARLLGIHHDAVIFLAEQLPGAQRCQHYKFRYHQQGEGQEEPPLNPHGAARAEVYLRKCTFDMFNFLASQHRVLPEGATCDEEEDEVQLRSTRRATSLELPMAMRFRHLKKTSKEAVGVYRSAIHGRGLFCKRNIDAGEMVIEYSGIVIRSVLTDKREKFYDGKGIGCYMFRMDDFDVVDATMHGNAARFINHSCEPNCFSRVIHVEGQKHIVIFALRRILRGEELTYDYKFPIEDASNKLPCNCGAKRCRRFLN
UniProt Q9HCM3: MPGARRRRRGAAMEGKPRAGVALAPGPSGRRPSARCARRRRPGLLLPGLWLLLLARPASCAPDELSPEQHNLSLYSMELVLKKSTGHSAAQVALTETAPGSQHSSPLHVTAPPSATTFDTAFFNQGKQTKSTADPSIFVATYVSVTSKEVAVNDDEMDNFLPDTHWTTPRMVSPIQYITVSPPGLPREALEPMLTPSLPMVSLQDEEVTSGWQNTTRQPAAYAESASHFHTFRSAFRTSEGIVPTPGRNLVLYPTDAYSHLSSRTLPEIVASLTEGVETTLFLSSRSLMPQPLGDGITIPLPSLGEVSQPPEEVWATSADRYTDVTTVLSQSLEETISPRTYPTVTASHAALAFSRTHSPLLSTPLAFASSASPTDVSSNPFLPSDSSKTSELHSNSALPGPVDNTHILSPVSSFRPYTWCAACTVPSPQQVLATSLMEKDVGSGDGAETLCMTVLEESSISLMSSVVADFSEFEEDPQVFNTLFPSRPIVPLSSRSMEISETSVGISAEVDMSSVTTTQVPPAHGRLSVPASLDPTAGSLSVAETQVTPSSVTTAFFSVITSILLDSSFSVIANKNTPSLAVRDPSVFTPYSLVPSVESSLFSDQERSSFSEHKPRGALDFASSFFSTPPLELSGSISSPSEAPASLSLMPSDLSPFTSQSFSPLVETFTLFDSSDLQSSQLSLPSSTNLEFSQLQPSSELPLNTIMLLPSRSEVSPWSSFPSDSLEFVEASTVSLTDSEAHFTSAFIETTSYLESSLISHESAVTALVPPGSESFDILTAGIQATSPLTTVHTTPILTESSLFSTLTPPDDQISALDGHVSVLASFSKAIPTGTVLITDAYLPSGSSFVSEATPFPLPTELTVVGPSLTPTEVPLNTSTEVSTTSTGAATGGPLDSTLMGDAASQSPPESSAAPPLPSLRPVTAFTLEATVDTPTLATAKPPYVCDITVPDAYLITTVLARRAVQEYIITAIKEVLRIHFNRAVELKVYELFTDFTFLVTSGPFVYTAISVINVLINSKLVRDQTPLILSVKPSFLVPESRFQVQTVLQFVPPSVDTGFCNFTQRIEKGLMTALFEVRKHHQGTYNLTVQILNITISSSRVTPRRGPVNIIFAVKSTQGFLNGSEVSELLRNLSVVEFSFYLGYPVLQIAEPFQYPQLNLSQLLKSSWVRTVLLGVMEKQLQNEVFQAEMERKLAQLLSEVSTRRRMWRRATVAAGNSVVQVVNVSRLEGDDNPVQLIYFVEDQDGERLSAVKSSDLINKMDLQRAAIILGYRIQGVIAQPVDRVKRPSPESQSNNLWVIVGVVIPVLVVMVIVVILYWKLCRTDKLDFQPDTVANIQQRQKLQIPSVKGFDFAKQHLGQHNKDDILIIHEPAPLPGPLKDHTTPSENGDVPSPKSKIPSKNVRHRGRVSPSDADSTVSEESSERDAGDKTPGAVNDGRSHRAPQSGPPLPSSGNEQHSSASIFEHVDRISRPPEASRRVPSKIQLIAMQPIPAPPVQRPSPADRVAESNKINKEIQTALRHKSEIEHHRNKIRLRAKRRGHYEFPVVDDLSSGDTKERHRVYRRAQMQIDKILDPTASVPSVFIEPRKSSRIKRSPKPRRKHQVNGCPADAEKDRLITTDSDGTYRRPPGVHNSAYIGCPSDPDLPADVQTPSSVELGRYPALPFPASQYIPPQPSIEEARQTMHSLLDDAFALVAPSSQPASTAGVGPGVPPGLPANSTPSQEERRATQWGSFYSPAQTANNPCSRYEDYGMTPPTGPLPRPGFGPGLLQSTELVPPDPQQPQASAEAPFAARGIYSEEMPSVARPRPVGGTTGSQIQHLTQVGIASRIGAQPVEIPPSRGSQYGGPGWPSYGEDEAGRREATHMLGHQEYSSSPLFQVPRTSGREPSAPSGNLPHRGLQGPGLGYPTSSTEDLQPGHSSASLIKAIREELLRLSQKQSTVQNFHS

[2] = compound: Cc1nc(Nc2n[nH]c3c2CN(C(=O)N[C@H](CN(C)C)c2ccccc2)C3(C)C)c2sccc2n1
Procedure, shortened: as §1

[3] = compound: Cc1ncc(-c2ccnc(Nc3ccc(S(C)(=O)=O)cc3)n2)n1C(C)C
Procedure, shortened: as §1

[4] = compound: Cn1cc(CNCC2CCN(c3ncc(C(=O)NO)cn3)CC2)c2ccccc21 [quisinostat]
Procedure, shortened: as §1

[5] = compound: Cn1cncc1[C@@](N)(c1ccc(Cl)cc1)c1ccc2c(c1)c(-c1cccc(Cl)c1)cc(=O)n2C [tipifarnib]
Procedure, shortened: as §1

[6] = compound: NC(=O)Nc1cc(-c2cccc(F)c2)sc1C(=O)N[C@H]1CCCNC1
Procedure, shortened: as §1

[7] = compound: NC(=O)c1cnc(N[C@@H]2CCCC[C@@H]2N)nc1Nc1cccc(-n2nccn2)c1
Procedure, shortened: as §1

[8] = compound: Cc1nc(Nc2ncc(C(=O)Nc3c(C)cccc3Cl)s2)cc(N2CCN(CCO)CC2)n1 [dasatinib]
Procedure, shortened: as §1

[9] = compound: Cn1cc(-c2ccc3c(c2)CCN3C(=O)Cc2cccc(C(F)(F)F)c2)c2c(N)ncnc21
Procedure, shortened: as §1

[10] = compound: NC1(c2ccc(-c3nc4ccn5c(=O)[nH]nc5c4cc3-c3ccccc3)cc2)CCC1
Procedure, shortened: as §1

Measured: log2 fold change

KLF3 (UniProt P57682)
inactive: [1] 0.019 | [2] -0.074 | [3] -0.14 | [4] -0.021 | [5] -0.016 | [6] -0.064

KLHL7 isoform 3 (UniProt Q8IXQ5)
inactive: [1] -0.086 | [2] -0.031 | [3] 0.039 | [4] -0.016 | [5] -0.059 | [6] -0.018 | [7] -0.002

KLHL11 (UniProt Q9NVR0)
inactive: [1] 0.037 | [2] -0.019 | [8] -0.123 | [3] -0.031 | [9] 0.085 | [4] -0.046 | [5] 0.012 | [6] 0.063 | [10] -0.077

KIDINS220 isoform 4 (UniProt Q9ULH0)
inactive: [1] -0.022 | [2] -0.004 | [8] -0.018 | [3] -0.014 | [9] 0.029 | [4] -0.041 | [5] -0.019 | [6] 0.001 | [7] 0.038 | [10] 0.055

KLHDC8B (UniProt Q8IXV7)
inactive: [1] -0.03 | [2] 0.047 | [8] -0.013 | [3] -0.181 | [9] -0.035 | [4] -0.012 | [5] -0.086 | [6] -0.005 | [10] -0.008

KHDC4 (UniProt Q7Z7F0)
inactive: [1] -0.008 | [2] 0.03 | [8] -0.051 | [3] 0.032 | [9] -0.011 | [4] 0.043 | [5] -0.032 | [6] 0.015 | [7] -0.023 | [10] 0.074

KIF1B isoform 3 (UniProt O60333)
inactive: [1] 0.062 | [2] -0.001 | [8] 0.429 | [3] 0.008 | [9] -0.044 | [4] 0.176 | [5] -0.196 | [6] 0.005 | [10] 0.084

LAMTOR2 (UniProt Q9Y2Q5)
inactive: [1] 0.034 | [2] 0.011 | [8] 0.017 | [3] 0.112 | [9] 0.004 | [4] -0.078 | [5] 0.015 | [6] -0.024 | [7] -0.062 | [10] -0.002

LACTB (UniProt P83111)
inactive: [1] 0.095 | [2] -0.005 | [8] 0.035 | [3] 0.003 | [9] -0.011 | [4] 0.001 | [5] 0.036 | [6] 0.023 | [7] -0.027 | [10] 0.033

LANCL2 (UniProt Q9NS86)
inactive: [1] 0.008 | [2] 0.016 | [8] 0.021 | [3] 0.035 | [9] 0.02 | [4] -0.024 | [5] 0.002 | [6] 0.007 | [7] 0.016 | [10] -0.002

KDM4B (UniProt O94953)
inactive: [1] 0.081 | [2] -0.062 | [8] -0.084 | [3] -0.234 | [9] 0.06 | [4] 0.043 | [5] -0.032 | [6] -0.028 | [10] 0.026

KIAA1586 (UniProt Q9HCI6)
inactive: [1] 0 | [2] 0.229 | [8] 0.044 | [3] -0.088 | [9] -0.01 | [5] -0.213 | [10] -0.015

KIF3B (UniProt O15066)
inactive: [1] -0.051 | [2] 0.002 | [3] 0.012 | [4] -0.022 | [5] 0.014 | [6] 0.024 | [7] 0.043 | [10] -0.013

KLHL22 (UniProt Q53GT1)
inactive: [8] 0.018 | [9] -0.136 | [10] 0.038

LAPTM4B (UniProt Q86VI4)
inactive: [10] -0.022

LACRT (UniProt Q9GZZ8)
inactive: [7] 0.122 | [10] 0.005

LAPTM4A (UniProt Q15012)
inactive: [8] -0.169 | [9] 0.287

KDM5A (UniProt P29375)
inactive: [8] -0.175 | [9] 0.124 | [4] -0.047 | [6] -0.012

KMT2B (UniProt Q9UMN6)
inactive: [8] 0.013 | [9] 0.108 | [4] 0.346 | [6] -0.047 | [10] 0.122

KLF1 (UniProt Q13351)
inactive: [1] -0.022 | [2] -0.122 | [3] 0.018 | [5] -0.15 | [7] 0.07 | [10] 0.097

Two records drawn at random from those above, as already listed:
KIF1B isoform 3 (UniProt O60333)
inactive: [1] 0.062 | [2] -0.001 | [8] 0.429 | [3] 0.008 | [9] -0.044 | [4] 0.176 | [5] -0.196 | [6] 0.005 | [10] 0.084

LACRT (UniProt Q9GZZ8)
inactive: [7] 0.122 | [10] 0.005

Continued.

KRBA1 (UniProt A5PL33)
inactive: [8] 0.058 | [9] -0.094 | [4] -0.277 | [6] 0.205 | [7] 0.034 | [10] -0.077

LAMB2 (UniProt P55268)
inactive: [8] -0.16 | [9] 0.147 | [10] 0.184

KREMEN1 isoform 2 (UniProt Q96MU8)
inactive: [4] -0.065 | [6] 0.047

LAMA5 (UniProt O15230)
inactive: [8] -0.031 | [9] 0.161 | [4] -0.042 | [6] 0.079 | [10] -0.055

KIAA1549 (UniProt Q9HCM3)
inactive: [1] -0.143 | [2] 0.026 | [3] -0.014 | [5] -0.262

KLK3 (UniProt P07288)
inactive: [8] -0.963 | [9] 0.182

KRT87P (UniProt A6NCN2)
inactive: [10] -0.123

LAMP2 isoform 2 (UniProt P13473)
inactive: [1] -0.045 | [2] 0.039 | [3] 0.031 | [4] 0.118 | [5] 0.125 | [6] -0.016 | [10] 0.067

KLHL20 (UniProt Q9Y2M5)
inactive: [8] -0.042 | [9] 0.003 | [4] 0.001 | [6] 0.042 | [7] 0.042 | [10] -0.019

KDM5B isoform 2 (UniProt Q9UGL1)
inactive: [8] 0.021 | [9] -0.049 | [4] -0.117 | [6] -0.085 | [7] 0.034 | [10] -0.049

LANCL3 (UniProt Q6ZV70)
inactive: [1] -0.193 | [2] -0.079 | [3] 0.079 | [5] -0.129

KPNA5 (UniProt O15131)
inactive: [1] -0.162 | [2] -0.098 | [3] 0.15 | [5] -0.028 | [10] 0.003

LARGE2 (UniProt Q8N3Y3)
inactive: [1] -0.159 | [2] 0.065 | [3] -0.023 | [5] 0.101

KIZ (UniProt Q2M2Z5)
inactive: [8] 0.016 | [9] -0.189 | [4] -0.039 | [6] 0.026 | [10] 0.086

LAMA2 (UniProt P24043)
inactive: [1] 0.009 | [2] 0.017 | [3] -0.002 | [5] -0.109 | [7] 0.082 | [10] -0.073

KIFC3 isoform 6 (UniProt Q9BVG8)
inactive: [8] -0.055 | [9] -0.146 | [4] -0.189 | [6] 0.079 | [10] -0.213

KTN1 (UniProt G3V5Q0)
inactive: [10] -0.116

Source: the supplement of paper PMC10849652
